In PMC3923060, “HCV Core Residues Critical for Infectivity Are Also Involved in Core-NS5A Complex Formation” (PLoS ONE, 2014):
Results are given in words; binding and its absence hold for the method and conditions named. Some results given as binding are weak or reduced against the parent protein; the word gives no strength.

Columns and labels:
[1] = molecular target: GST-Core-BD2-His R50A/K51A (hepatitis C virus genotype 2a, strain JFH1) (UniProt Q99IB8); experiment: pull-down; 4 µg GST protein (bait) mixed with 10 µg NS5A protein in 100 µl binding buffer (50 mM Tris-HCl pH 7.5, 100 mM NaCl, 5 mM MgCl2, 10% glycerol, 0.5% Igepal CA-630, 1 mM DTT), 3 h at 4°C, then glutathione beads 1 h; Western blot (anti-NS5A, anti-Flag), in Figure 3 quantified by IR fluorescence; both purified
[2] = molecular target: GST-Core-BD2-His K51A/R62A (hepatitis C virus genotype 2a, strain JFH1) (UniProt Q99IB8); experiment: as above
[3] = molecular target: GST-Core-BD2-His R59A/R62A (hepatitis C virus genotype 2a, strain JFH1) (UniProt Q99IB8); experiment: as above
[4] = molecular target: GST-Core-BD2-His R50A/R59A/R62A (hepatitis C virus genotype 2a, strain JFH1) (UniProt Q99IB8); experiment: as above
[5] = molecular target: GST-Core-BD2-His K51A/R59A/R62A (hepatitis C virus genotype 2a, strain JFH1) (UniProt Q99IB8); experiment: as above
[6] = molecular target: GST-Core-BD2-His R50A/K51A/R59A (hepatitis C virus genotype 2a, strain JFH1) (UniProt Q99IB8); experiment: as above
[7] = molecular target: GST-Core-BD2-His R50A/K51A/R59A/R62A (hepatitis C virus genotype 2a, strain JFH1) (UniProt Q99IB8); experiment: as above
[8] = molecular target: GST-Core-BD2-His R50A/R62A (hepatitis C virus genotype 2a, strain JFH1) (UniProt Q99IB8); experiment: as above
[9] = molecular target: GST-Core75-170-His (hepatitis C virus genotype 2a, strain JFH1) (UniProt Q99IB8); experiment: as above
[10] = molecular target: GST-Core-BD2-His K51A/R59A (hepatitis C virus genotype 2a, strain JFH1) (UniProt Q99IB8); experiment: as above
[11] = molecular target: GST-Core-BD2-His R50A/R59A (hepatitis C virus genotype 2a, strain JFH1) (UniProt Q99IB8); experiment: as above
[12] = molecular target: GST-Core-BD2-His R50A/K51A/R62A (hepatitis C virus genotype 2a, strain JFH1) (UniProt Q99IB8); experiment: as above
[13] = molecular target: GST-Core122-170-His (hepatitis C virus genotype 2a, strain JFH1) (UniProt Q99IB8); experiment: condition: 10 µg NS5A protein with 4 µg GST protein in 100 µl; pull-down; 4 µg GST protein (bait) mixed with 10 µg NS5A protein in 100 µl binding buffer (50 mM Tris-HCl pH 7.5, 100 mM NaCl, 5 mM MgCl2, 10% glycerol, 0.5% Igepal CA-630, 1 mM DTT), 3 h at 4°C, then glutathione beads 1 h; Western blot (anti-NS5A, anti-Flag), in Figure 3 quantified by IR fluorescence; both purified

full-length NS5A-His (from UniProt Q99IB8 1977-2442)
binding [1]: binds weakly | binding [2]: binds weakly | binding [3]: binds weakly | binding [4]: binds weakly | binding [5]: binds weakly | binding [6]: binds weakly | binding [7]: binds weakly | binding [8]: binds weakly | binding [9]: binds weakly | binding [10]: binds weakly | binding [11]: binds weakly | binding [12]: binds weakly | binding [13]: no binding
